Laboratory results as given in the supplement of paper PMC10689618.
Counter-ions that a name gives are not always drawn. The list shows a part of the results. Many values rest on one well or one pass, so single values are uncertain.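 Labelled rat cortical synaptosomes were engulfed by primary human fetal astrocytes. Engulfment equaled a red/green ratio, corrected for calcein live-cell signal and normalized to the plate median. Compounds were toxic when calcein dropped over 30%, and reduced phagocytosis when below 70% of the median above 5 µM.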

What follows are molecules tested on Human fetal astrocytes (assay: loss of total cells relative to no-compound high-control median (toxicity); higher = more toxic (fewer cells)). Conditions: 2.78 µM; 24 h.

SMILES | loss of total cells [%]
COc1cc(O)cc(OC)c1OC | 2.7
Nc1ccc(C(=O)O)c(O)c1 | -4.6
Cc1cc(-c2ccccc2)nnc1NCCN1CCOCC1 | -5.2
C=C1c2c(Cl)ccc(O)c2C(O)=C2C(=O)[C@]3(O)C(O)=C(C(N)=O)C(=O)[C@@H](N(C)C)[C@@H]3[C@@H](O)[C@H]12.O=C(O)c1cc(S(=O)(=O)O)ccc1O | -5.8
CCCCCCCCCc1ccc(OCCOCCOCCOCCOCCOCCOCCOCCOCCO)cc1 | 10.6
O=C1CCc2ccc(OCCCCN3CCN(c4cccc(Cl)c4Cl)CC3)cc2N1 | -12
NC(=O)c1cc[n+](CC2=C(C(=O)O)N3C(=O)[C@@H](NC(=O)[C@@H](c4ccccc4)S(=O)(=O)[O-])[C@H]3SC2)cc1 | -19.8
CC(C)=CC1C(C(=O)O)C1(C)C (stereo not drawn) | -0.4
CCC(C)C(=O)OC1[C@@H]2CC3=C4CC(=O)O[C@@H](c5ccoc5)[C@]4(C)CCC3[C@@](C)(C2=O)[C@@H](CC(=O)OC)C1(C)C (stereo partly drawn) | -0.4
C/C=C1\[C@H]2C=C(C)C[C@]1(N)c1ccc(=O)[nH]c1C2 | -15.5
Nc1cc(C(Cl)=C(Cl)Cl)c(S(N)(=O)=O)cc1S(N)(=O)=O | -34.9
CC(C)(C(=O)O)c1ccc(C(O)CCCN2CCC(C(O)(c3ccccc3)c3ccccc3)CC2)cc1 (stereo not drawn) [Fexofenadine hydrochloride] | -4.8
CO[C@@]1(NC(=O)C(C(=O)O)c2ccc(O)cc2)C(=O)N2C(C(=O)O)=C(CSc3nnnn3C)CO[C@@H]21 (stereo partly drawn) | -16.8
Cc1ncc(CO)c(CO)c1O | -23
CCOc1ccc(NC(C)=O)cc1 | -21.4
COc1cc(C(=O)N2CCOCC2)cc(OC)c1OC | -35.7
CO[C@H]1C[C@H](O[C@H]2[C@H](C)[C@@H](O[C@@H]3O[C@H](C)C[C@H](N(C)C)[C@H]3O)[C@@H](C)C[C@@]3(CO3)C(=O)[C@H](C)[C@@H](O)[C@@H](C)[C@@H](C)OC(=O)[C@@H]2C)O[C@@H](C)[C@@H]1O | -23.4
COC(=O)[C@H]1[C@H]2C[C@H]3c4[nH]c5cc(OC)ccc5c4CCN3C[C@H]2C[C@@H](OC(=O)c2cc(OC)c(OC)c(OC)c2)[C@@H]1OC | 17
CCOc1ccc(C(=O)c2ccc(OC)c(O)c2O)cc1 | 8.6
Cc1ncc(C[n+]2csc(CCO)c2C)c(N)n1 | -28.6

SMILES | loss of total cells [%]
CCC(=O)OCC(=O)[C@@]1(OC(=O)CC)[C@@H](C)C[C@H]2[C@@H]3CCC4=CC(=O)C=C[C@]4(C)[C@@]3(F)[C@@H](O)C[C@@]21C | 31
O=C1C(CC[S+]([O-])c2ccccc2)C(=O)N(c2ccccc2)N1c1ccccc1 (stereo not drawn) | -5.1
CCCN(CCC)S(=O)(=O)c1ccc(C(=O)O)cc1 | -27.5
CC1(C)S[C@@H]2[C@H](N3C(=O)[C@@H](c4ccccc4)NC3(C)C)C(=O)N2[C@H]1C(=O)O | -24.7
COc1c(O)cc(O)cc1O | 15.3
Cc1c(N(C)C)c(=O)n(-c2ccccc2)n1C | 9
C[N+](C)(C)CCOP(=O)(O)OP(=O)([O-])OC[C@H]1O[C@@H](n2ccc(N)nc2=O)[C@H](O)[C@@H]1O | -5.6
COC(=O)C[C@H]1C(C)(C)[C@@H](OC(C)=O)[C@@H]2CC3C4CC(=O)O[C@@H](c5ccoc5)[C@]4(C)CCC3[C@@]1(C)C2=O (stereo partly drawn) | 15.9
CCOc1ccc2ccccc2c1C(=O)N[C@@H]1C(=O)N2[C@@H]1SC(C)(C)[C@@H]2C(=O)O | -25.3
CN1C(=O)OC(C)(C)C1=O | -36.5
Cn1c([N+](=O)[O-])cnc1COC(N)=O | -0.9
OC(CCN1CCCCC1)(c1ccccc1)C1CC2C=CC1C2 (stereo not drawn) | -41.3
COc1c(-c2coc3cc4c(cc3c2=O)CC(O)C(C)(C)O4)ccc2c1C=CC(C)(C)O2 (stereo not drawn) | 4.7
NCCOB(c1ccccc1)c1ccccc1 | -16.2
CC1=CCCC(C)=CCC(C)(C)C=CC1 [HUMULENE (alpha)] | 4.7
C=CC(C1=CC(=O)C(OC)=CC1=O)c1ccc(O)cc1 (stereo not drawn) | 8.6
CCC[C@@H]1C[C@@H](C(=O)N[C@@H]([C@H]2O[C@H](SC)[C@H](O)[C@@H](O)[C@H]2O)[C@@H](C)O)N(C)C1 | -11.9
CCOC(=O)c1c(C)cc(O)cc1O | 5.3
Nc1ccccc1C(=O)CC(N)C(=O)O (stereo not drawn) | -4

Same assay, conditions: 5.56 µM; 24 h

SMILES | loss of total cells [%]
COc1cc(O)cc(OC)c1OC | -12.2
Nc1ccc(C(=O)O)c(O)c1 | -2.1
Cc1cc(-c2ccccc2)nnc1NCCN1CCOCC1 | -6.9
C=C1c2c(Cl)ccc(O)c2C(O)=C2C(=O)[C@]3(O)C(O)=C(C(N)=O)C(=O)[C@@H](N(C)C)[C@@H]3[C@@H](O)[C@H]12.O=C(O)c1cc(S(=O)(=O)O)ccc1O | -2.1
CCCCCCCCCc1ccc(OCCOCCOCCOCCOCCOCCOCCOCCOCCO)cc1 | -0.8
O=C1CCc2ccc(OCCCCN3CCN(c4cccc(Cl)c4Cl)CC3)cc2N1 | 35.1
NC(=O)c1cc[n+](CC2=C(C(=O)O)N3C(=O)[C@@H](NC(=O)[C@@H](c4ccccc4)S(=O)(=O)[O-])[C@H]3SC2)cc1 | 13.7
CC(C)=CC1C(C(=O)O)C1(C)C (stereo not drawn) | 2.9
CCC(C)C(=O)OC1[C@@H]2CC3=C4CC(=O)O[C@@H](c5ccoc5)[C@]4(C)CCC3[C@@](C)(C2=O)[C@@H](CC(=O)OC)C1(C)C (stereo partly drawn) | 16.7
C/C=C1\[C@H]2C=C(C)C[C@]1(N)c1ccc(=O)[nH]c1C2 | -11
Nc1cc(C(Cl)=C(Cl)Cl)c(S(N)(=O)=O)cc1S(N)(=O)=O | 1.9
CC(C)(C(=O)O)c1ccc(C(O)CCCN2CCC(C(O)(c3ccccc3)c3ccccc3)CC2)cc1 (stereo not drawn) [Fexofenadine hydrochloride] | 6.2
CO[C@@]1(NC(=O)C(C(=O)O)c2ccc(O)cc2)C(=O)N2C(C(=O)O)=C(CSc3nnnn3C)CO[C@@H]21 (stereo partly drawn) | 15.3
Cc1ncc(CO)c(CO)c1O | 1.2
CCOc1ccc(NC(C)=O)cc1 | -16.7
COc1cc(C(=O)N2CCOCC2)cc(OC)c1OC | 9.3
CO[C@H]1C[C@H](O[C@H]2[C@H](C)[C@@H](O[C@@H]3O[C@H](C)C[C@H](N(C)C)[C@H]3O)[C@@H](C)C[C@@]3(CO3)C(=O)[C@H](C)[C@@H](O)[C@@H](C)[C@@H](C)OC(=O)[C@@H]2C)O[C@@H](C)[C@@H]1O | -17.4
COC(=O)[C@H]1[C@H]2C[C@H]3c4[nH]c5cc(OC)ccc5c4CCN3C[C@H]2C[C@@H](OC(=O)c2cc(OC)c(OC)c(OC)c2)[C@@H]1OC | 15.2
CCOc1ccc(C(=O)c2ccc(OC)c(O)c2O)cc1 | 35.1
Cc1ncc(C[n+]2csc(CCO)c2C)c(N)n1 | 2.5

SMILES | loss of total cells [%]
CCC(=O)OCC(=O)[C@@]1(OC(=O)CC)[C@@H](C)C[C@H]2[C@@H]3CCC4=CC(=O)C=C[C@]4(C)[C@@]3(F)[C@@H](O)C[C@@]21C | 3.1
O=C1C(CC[S+]([O-])c2ccccc2)C(=O)N(c2ccccc2)N1c1ccccc1 (stereo not drawn) | 6.3
CCCN(CCC)S(=O)(=O)c1ccc(C(=O)O)cc1 | -32.1
CC1(C)S[C@@H]2[C@H](N3C(=O)[C@@H](c4ccccc4)NC3(C)C)C(=O)N2[C@H]1C(=O)O | 0.7
COc1c(O)cc(O)cc1O | 6.9
Cc1c(N(C)C)c(=O)n(-c2ccccc2)n1C | 0
C[N+](C)(C)CCOP(=O)(O)OP(=O)([O-])OC[C@H]1O[C@@H](n2ccc(N)nc2=O)[C@H](O)[C@@H]1O | -1.9
COC(=O)C[C@H]1C(C)(C)[C@@H](OC(C)=O)[C@@H]2CC3C4CC(=O)O[C@@H](c5ccoc5)[C@]4(C)CCC3[C@@]1(C)C2=O (stereo partly drawn) | -7.6
CCOc1ccc2ccccc2c1C(=O)N[C@@H]1C(=O)N2[C@@H]1SC(C)(C)[C@@H]2C(=O)O | 1.5
CN1C(=O)OC(C)(C)C1=O | 0
Cn1c([N+](=O)[O-])cnc1COC(N)=O | -2.7
OC(CCN1CCCCC1)(c1ccccc1)C1CC2C=CC1C2 (stereo not drawn) | 0.6
COc1c(-c2coc3cc4c(cc3c2=O)CC(O)C(C)(C)O4)ccc2c1C=CC(C)(C)O2 (stereo not drawn) | 27.5
NCCOB(c1ccccc1)c1ccccc1 | -15.4
CC1=CCCC(C)=CCC(C)(C)C=CC1 [HUMULENE (alpha)] | -4.4
C=CC(C1=CC(=O)C(OC)=CC1=O)c1ccc(O)cc1 (stereo not drawn) | -8.4
CCC[C@@H]1C[C@@H](C(=O)N[C@@H]([C@H]2O[C@H](SC)[C@H](O)[C@@H](O)[C@H]2O)[C@@H](C)O)N(C)C1 | -24.4
CCOC(=O)c1c(C)cc(O)cc1O | 43.5
Nc1ccccc1C(=O)CC(N)C(=O)O (stereo not drawn) | -18.3
